# Test results as given in the supplement of paper PMC6411743.
# ± gives the standard deviation of the averaged measurements. Some of the results follow.
# Key:
# Assay in all cases: NP40-soluble protein abundance relative to vehicle (solubility fold change) (ratio); higher = more soluble protein in presence of GTP
# [1] = target: T1, A0A0C4DFN1|Q8IWA4 and related entries (UniProt Q8IWA4)
# T1 sequence (whole entry): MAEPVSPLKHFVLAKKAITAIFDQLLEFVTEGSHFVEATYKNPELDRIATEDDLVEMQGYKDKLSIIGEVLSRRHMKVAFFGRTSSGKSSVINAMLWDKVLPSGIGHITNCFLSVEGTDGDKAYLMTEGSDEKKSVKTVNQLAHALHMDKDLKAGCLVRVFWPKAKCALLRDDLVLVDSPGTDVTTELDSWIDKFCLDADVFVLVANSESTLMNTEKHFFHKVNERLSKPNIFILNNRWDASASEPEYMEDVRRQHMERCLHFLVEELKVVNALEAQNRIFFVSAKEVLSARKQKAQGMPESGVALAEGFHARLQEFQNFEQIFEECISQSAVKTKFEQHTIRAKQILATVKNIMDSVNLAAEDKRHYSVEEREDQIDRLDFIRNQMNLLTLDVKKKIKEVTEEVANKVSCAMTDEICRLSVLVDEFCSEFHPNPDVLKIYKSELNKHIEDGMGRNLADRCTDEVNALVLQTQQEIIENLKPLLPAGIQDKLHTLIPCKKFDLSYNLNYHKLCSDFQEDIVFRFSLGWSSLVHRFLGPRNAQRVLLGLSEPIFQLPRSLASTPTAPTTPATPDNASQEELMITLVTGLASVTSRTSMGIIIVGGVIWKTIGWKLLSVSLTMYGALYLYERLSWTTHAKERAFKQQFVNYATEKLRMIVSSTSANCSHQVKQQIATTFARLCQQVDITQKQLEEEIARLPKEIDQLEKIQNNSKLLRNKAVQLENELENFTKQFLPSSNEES
# Outline: (§1)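 Crude Jurkat lysate, prepared by Dounce homogenisation, was exposed to eight concentrations from 0.1 to 10 mM for 10 min at room temperature and then 3 min at 37 °C. Solubilisation used 0.8% NP40 with benzonase for 60 min at 4 °C, followed by ultracentrifugation and TMT labelling of the supernatant for LC-MS/MS. After vsn normalisation of intensities, each value is the fold change against the detergent-processed vehicle within each replicate, across three independent experiments.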
# [2] = target: T2, A0A0C4DFX7|Q9H967 (UniProt Q9H967)
# T2 sequence (whole entry): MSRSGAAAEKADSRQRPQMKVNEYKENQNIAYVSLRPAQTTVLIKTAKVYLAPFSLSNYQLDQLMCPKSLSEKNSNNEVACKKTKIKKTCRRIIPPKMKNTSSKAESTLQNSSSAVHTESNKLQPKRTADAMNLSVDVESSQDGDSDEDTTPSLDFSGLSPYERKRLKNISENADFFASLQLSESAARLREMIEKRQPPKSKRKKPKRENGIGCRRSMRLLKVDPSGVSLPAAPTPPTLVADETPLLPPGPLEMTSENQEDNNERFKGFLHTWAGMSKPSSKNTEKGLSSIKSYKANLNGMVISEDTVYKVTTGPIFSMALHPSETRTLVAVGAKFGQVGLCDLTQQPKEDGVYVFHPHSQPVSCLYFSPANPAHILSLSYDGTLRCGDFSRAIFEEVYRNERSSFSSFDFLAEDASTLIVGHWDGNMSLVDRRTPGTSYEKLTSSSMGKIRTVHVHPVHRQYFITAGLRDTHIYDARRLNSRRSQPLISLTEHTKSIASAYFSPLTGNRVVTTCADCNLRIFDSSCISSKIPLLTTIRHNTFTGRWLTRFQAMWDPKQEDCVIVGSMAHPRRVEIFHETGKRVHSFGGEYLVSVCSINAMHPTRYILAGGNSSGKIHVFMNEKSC
# Outline: as §1
# [3] = target: T3, A0A0C4DG89|Q7L014 (UniProt Q7L014)
# T3 sequence (whole entry): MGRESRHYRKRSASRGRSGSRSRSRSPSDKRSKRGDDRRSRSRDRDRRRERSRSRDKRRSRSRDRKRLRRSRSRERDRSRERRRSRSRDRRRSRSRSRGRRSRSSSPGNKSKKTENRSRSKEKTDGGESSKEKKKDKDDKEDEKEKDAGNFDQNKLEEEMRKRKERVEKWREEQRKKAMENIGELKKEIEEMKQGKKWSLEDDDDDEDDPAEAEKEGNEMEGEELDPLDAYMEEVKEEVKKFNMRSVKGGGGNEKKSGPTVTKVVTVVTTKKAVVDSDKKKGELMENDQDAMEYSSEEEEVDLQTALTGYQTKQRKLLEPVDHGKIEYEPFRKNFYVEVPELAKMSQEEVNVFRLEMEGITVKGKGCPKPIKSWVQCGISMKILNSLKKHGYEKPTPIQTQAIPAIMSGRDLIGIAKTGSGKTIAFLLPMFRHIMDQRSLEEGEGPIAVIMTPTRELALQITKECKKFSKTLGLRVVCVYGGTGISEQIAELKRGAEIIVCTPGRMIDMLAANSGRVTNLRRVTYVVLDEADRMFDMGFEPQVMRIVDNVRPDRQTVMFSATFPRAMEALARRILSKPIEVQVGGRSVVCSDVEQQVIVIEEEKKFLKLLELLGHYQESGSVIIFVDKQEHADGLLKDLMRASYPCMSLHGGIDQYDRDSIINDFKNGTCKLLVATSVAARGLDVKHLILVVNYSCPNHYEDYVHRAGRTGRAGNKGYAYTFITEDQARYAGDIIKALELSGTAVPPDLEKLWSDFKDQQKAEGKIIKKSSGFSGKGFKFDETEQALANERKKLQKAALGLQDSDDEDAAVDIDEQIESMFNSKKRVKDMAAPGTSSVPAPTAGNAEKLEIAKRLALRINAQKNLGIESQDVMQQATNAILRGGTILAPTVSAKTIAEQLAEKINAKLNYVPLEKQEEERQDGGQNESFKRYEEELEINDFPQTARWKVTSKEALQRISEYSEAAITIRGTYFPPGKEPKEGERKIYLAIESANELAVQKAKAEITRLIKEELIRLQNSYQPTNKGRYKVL
# Outline: as §1
# [4] = target: T4, A0A0U1RR49|P53992 (UniProt P53992)
# T4 sequence (whole entry): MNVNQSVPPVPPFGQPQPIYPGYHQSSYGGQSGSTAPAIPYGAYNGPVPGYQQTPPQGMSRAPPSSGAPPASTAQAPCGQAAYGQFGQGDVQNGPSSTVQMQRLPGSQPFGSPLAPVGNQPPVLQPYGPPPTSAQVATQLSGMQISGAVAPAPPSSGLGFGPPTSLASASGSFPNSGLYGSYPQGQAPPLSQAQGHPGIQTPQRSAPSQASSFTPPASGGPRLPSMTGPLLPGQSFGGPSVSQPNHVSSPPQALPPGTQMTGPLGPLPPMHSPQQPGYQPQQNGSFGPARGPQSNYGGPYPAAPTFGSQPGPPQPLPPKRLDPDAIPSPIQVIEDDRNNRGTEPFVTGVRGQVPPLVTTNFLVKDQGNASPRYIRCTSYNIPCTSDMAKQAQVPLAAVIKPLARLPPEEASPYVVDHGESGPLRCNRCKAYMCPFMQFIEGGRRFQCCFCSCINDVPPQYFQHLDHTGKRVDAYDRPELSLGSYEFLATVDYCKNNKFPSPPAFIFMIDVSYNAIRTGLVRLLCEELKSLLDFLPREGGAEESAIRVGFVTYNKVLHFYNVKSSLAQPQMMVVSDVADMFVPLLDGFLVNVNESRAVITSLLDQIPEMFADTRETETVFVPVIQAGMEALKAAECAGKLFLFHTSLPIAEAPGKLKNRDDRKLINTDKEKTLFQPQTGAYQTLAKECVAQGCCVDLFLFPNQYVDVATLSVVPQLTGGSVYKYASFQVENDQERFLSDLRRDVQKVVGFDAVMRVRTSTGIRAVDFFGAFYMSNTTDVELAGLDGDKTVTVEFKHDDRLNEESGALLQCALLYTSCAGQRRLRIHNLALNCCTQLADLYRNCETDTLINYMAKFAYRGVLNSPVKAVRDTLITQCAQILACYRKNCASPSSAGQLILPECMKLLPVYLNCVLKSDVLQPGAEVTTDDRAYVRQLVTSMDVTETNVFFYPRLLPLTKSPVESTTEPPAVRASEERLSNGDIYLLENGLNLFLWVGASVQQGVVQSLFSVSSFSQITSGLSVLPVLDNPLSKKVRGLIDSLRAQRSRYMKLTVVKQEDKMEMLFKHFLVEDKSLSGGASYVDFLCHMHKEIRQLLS
# Outline: as §1
smiles,measurement,setting,value
Nc1nc2c(ncn2[C@@H]2O[C@H](COP(=O)(O)OP(=O)(O)OP(=O)(O)O)[C@@H](O)[C@H]2O)c(=O)[nH]1 [guanosine triphosphate],NP40-soluble protein abundance,[1]; concentration: 8mM,1 ± 0.048
same,NP40-soluble protein abundance,[1]; concentration: 10mM,0.919 ± 0.043
same,NP40-soluble protein abundance,[2]; concentration: 0.1mM,1.08 ± 0.091
same,NP40-soluble protein abundance,[2]; concentration: 0.5mM,0.947 ± 0.049
same,NP40-soluble protein abundance,[2]; concentration: 1mM,1.13 ± 0.18
same,NP40-soluble protein abundance,[2]; concentration: 2mM,1.16 ± 0.1
same,NP40-soluble protein abundance,[2]; concentration: 4mM,1.28 ± 0.073
same,NP40-soluble protein abundance,[2]; concentration: 6mM,1.26 ± 0.067
same,NP40-soluble protein abundance,[2]; concentration: 8mM,1.34 ± 0.19
same,NP40-soluble protein abundance,[2]; concentration: 10mM,1.33 ± 0.13
same,NP40-soluble protein abundance,[3]; concentration: 0.1mM,1 ± 0.023
same,NP40-soluble protein abundance,[3]; concentration: 0.5mM,1.06 ± 0.042
same,NP40-soluble protein abundance,[3]; concentration: 1mM,1.06 ± 0.022
same,NP40-soluble protein abundance,[3]; concentration: 2mM,0.99 ± 0.021
same,NP40-soluble protein abundance,[3]; concentration: 4mM,0.966 ± 0.016
same,NP40-soluble protein abundance,[3]; concentration: 6mM,0.988 ± 0.019
same,NP40-soluble protein abundance,[3]; concentration: 8mM,1.03 ± 0.033
same,NP40-soluble protein abundance,[3]; concentration: 10mM,0.996 ± 0.037
same,NP40-soluble protein abundance,[4]; concentration: 0.1mM,1.021 ± 0.0092
same,NP40-soluble protein abundance,[4]; concentration: 0.5mM,1.03 ± 0.019
same,NP40-soluble protein abundance,[4]; concentration: 1mM,0.97 ± 0.016
same,NP40-soluble protein abundance,[4]; concentration: 2mM,0.959 ± 0.028
same,NP40-soluble protein abundance,[4]; concentration: 4mM,0.9771 ± 0.0036
same,NP40-soluble protein abundance,[4]; concentration: 6mM,0.957 ± 0.019
same,NP40-soluble protein abundance,[4]; concentration: 8mM,0.932 ± 0.011
same,NP40-soluble protein abundance,[4]; concentration: 10mM,0.918 ± 0.037

# Reformatted with tabs: part of the list above.
smiles	measurement	setting	value
Nc1nc2c(ncn2[C@@H]2O[C@H](COP(=O)(O)OP(=O)(O)OP(=O)(O)O)[C@@H](O)[C@H]2O)c(=O)[nH]1 [guanosine triphosphate]	NP40-soluble protein abundance	[2]; concentration: 0.5mM	0.947 ± 0.049
same	NP40-soluble protein abundance	[2]; concentration: 1mM	1.13 ± 0.18
